Experimental data as given in US10995150B2, “Methods for inhibiting atherosclerosis by administering an anti-PCSK9 antibody” (REGENERON PHARMACEUTICALS, INC., priority 2013, dated 2021).

Tests used:
APOE*3Leiden.CETP mice [1] = experiment: Fecal excretion of bile acids and neutral sterols; type: in vivo, mouse; details: alone or + atorvastatin, mean ± SD
APOE*3Leiden.CETP mice [2] = experiment: Liver weight and hepatic lipid analysis; details: for Liver lipids: CE (cholesterol esters) / Liver lipids: FC (free cholesterol) / Liver lipids: TG (triglycerides): alone or + atorvastatin, mean ± SD

Molecule | Bile acid excretion (APOE*3Leiden.CETP mice [1]; 3 mg mAb316P) [μmol/100 g mouse/day] | Neutral sterol excretion (APOE*3Leiden.CETP mice [1]; 3 mg mAb316P) [μmol/100 g mouse/day] | Bile acid excretion (APOE*3Leiden.CETP mice [1]; 10 mg mAb316P) [μmol/100 g mouse/day] | Neutral sterol excretion (APOE*3Leiden.CETP mice [1]; 10 mg mAb316P) [μmol/100 g mouse/day] | Liver lipids: CE (cholesterol esters) (APOE*3Leiden.CETP mice [2]; 3 mg mAb316P) [μg/mg protein] | Liver lipids: FC (free cholesterol) (APOE*3Leiden.CETP mice [2]; 3 mg mAb316P) [μg/mg protein] | Liver lipids: TG (triglycerides) (APOE*3Leiden.CETP mice [2]; 3 mg mAb316P) [μg/mg protein] | Liver lipids: CE (cholesterol esters) (APOE*3Leiden.CETP mice [2]; 10 mg mAb316P) [μg/mg protein] | Liver lipids: FC (free cholesterol) (APOE*3Leiden.CETP mice [2]; 10 mg mAb316P) [μg/mg protein] | Liver lipids: TG (triglycerides) (APOE*3Leiden.CETP mice [2]; 10 mg mAb316P) [μg/mg protein] | effect on hepatic content of cholesterol and TG (APOE*3Leiden.CETP mice [2]; mAb316P alone (3 or 10 mg/kg), 18 weeks) | hepatic cholesteryl esters, change compared to the control group (APOE*3Leiden.CETP mice [2]; atorvastatin 3.6 mg/kg/d alone, 18 weeks) [%]
mAb316P: human anti-PCSK9 antibody; HCVR SEQ ID NO:1, LCVR SEQ ID NO:6 | 14.3 ± 2.7 | 20.4 ± 6.2 | 12.4 ± 3.2 | 21.6 ± 5.6 | 48.2 ± 8.2 | 11.2 ± 1.4 | 117.7 ± 21.6 | 53.9 ± 10.4 | 11.4 ± 2.0 | 142.1 ± 43.0 | did not affect | 
CC(C)c1c(C(=O)Nc2ccccc2)c(-c2ccccc2)c(-c2ccc(F)cc2)n1CC[C@@H](O)C[C@@H](O)CC(=O)O [atorvastatin, reference compound] |  |  |  |  |  |  |  |  |  |  |  | −48
